# Measurements taken from PubChem BioAssay AID540303 (National Center for Advancing Translational Sciences (NCATS), 2011).
# About 1,000 (0.3%) of roughly 330,000 compounds were called active. The shares of active, inactive and inconclusive entries below differ from those in the screen. The call rests on the fitted dose curve; in most records, active means well fitted inhibition curve with a large enough effect; inconclusive means small, poorly fitted or top-dose-only effect; inactive means no such curve, though single readings can be large or run the other way; tested in mouse RAW 264.7 cells. Potencies beside an inconclusive call are fits to weak or partial responses and may not hold up.
# Assay: qHTS for Inhibitors of Cell Surface uPA Generation; further: nearly all actives have a fitted effect of over 55% in size
# Conditions: cell surface uPA generation assay; series mostly up to 38.3 µM; activity change, negative = inhibition: at the top concentration
# Outline: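 Using RAW 264.7 macrophages, the screen measures whether compounds keep cellular ATP up by preventing uPA-driven LF translocation. Treatment lasted 24 h at 37 C, with a final top concentration of 38.3 uM, and luminescence was the readout.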
# On the % scale 0 is the no-effect control and ±100 the full control effect; potency means the concentration at half of the fitted maximal effect.
SMILES,"activity change, negative = inhibition",Potency
Nc1nc(SCC(=O)NCCO)nc2sc3c(c12)CCCC3,inactive: -2%,
CCOC(=O)C1(CC2CCCCO2)CCN(Cc2cc3ccccc3[nH]2)CC1 (configuration not stated),inactive: -2.77%,
O=C(c1cc(-c2ccc(F)cc2)on1)N1CCCc2ccccc21,,"inconclusive: 12.6 µM [inhibitor, single point]"
O=c1onc(-c2ccccc2)c2ccccc12,inactive: 9.65%,
CC1CCCC(N2CCN(C(=O)c3ccc([N+](=O)[O-])cc3)CC2)C1 (configuration not stated),,"inconclusive: 8.91 µM [inhibitor, single point]"
COc1ccc2nc(SCC(=O)NC3CCCCC3C)[nH]c2c1 (configuration not stated),,active: 8.91 µM
CC(C)N(C(=O)[C@H]1C[C@H](CC(=O)NCc2cccc(C(F)(F)F)c2)C(=O)N2CCc3c([nH]c4cc(-c5ccco5)ccc34)[C@]12C)C(C)C,,"inconclusive: 28.2 µM [inhibitor, single point]"
CCc1ccc(/C=C2/Sc3ccccc3N(CC(=O)NCCCN3CCOCC3)C2=O)cc1,,"inconclusive: 14.1 µM [inhibitor, partial curve, poor fit]"
CSc1nc(-c2ccc(Cl)cc2)nn1S(=O)(=O)c1ccc(Cl)cc1,inactive: -6.25%,
C=CCC[C@@H](Cc1ccc(F)cc1)C(=O)OC[C@@H](C)NC(=O)[C@@H](CC=C)CC(=O)N[C@H](CO)Cc1ccccc1,,"inconclusive: 1.12 µM [inhibitor, single point]"
CC1(c2nnc(-c3ccncc3)o2)CC(c2ccc(Cl)cc2)=NO1 (configuration not stated),inactive: -12.7%,
C[C@@H]1CN([C@H](C)CO)C(=O)c2cccc(NC(=O)Nc3ccc(F)cc3)c2O[C@H]1CN(C)C(=O)Nc1ccc(C(F)(F)F)cc1,,"inconclusive: 12.6 µM [inhibitor, single point]"
C[C@@]12C(=O)Nc3cc(F)c(F)cc3C(=O)N1[C@H]1c3cc(Cl)ccc3OC[C@@H]1[C@@H]2c1ccccc1,,"inconclusive: 28.2 µM [inhibitor, single point]"
CCN1CCN(CCCNC(=O)c2cc3c(=O)oc4ccc(C)cc4c3s2)CC1,,"inconclusive: 8.91 µM [inhibitor, single point]"
CC1=Nc2cc(C(=O)N3CCCC3)ccc2Sc2ccc(C)cc21,inactive: -0.76%,
O=C(C[C@H]1C/C=C\CCC(=O)O[C@@H](c2ccccc2)CNC1=O)NCCO,inactive: -1.73%,
FC(F)(F)c1ccc(C2[C@H]3CN(Cc4cccnc4)[C@H](c4ccccc4)C34CC2(c2ccccc2)C4)cc1 (some centres not stated),inactive: -3.82%,
CCCCOc1ccc(C(=O)O)cc1,inactive: -5.19%,
CC(C)(C)C(=O)Nc1cccc(-c2nc3ccccc3c(=O)o2)c1,,"inconclusive: 10 µM [inhibitor, single point]"
O=C(CCl)N1CCN(S(=O)(=O)c2ccc3c(c2)CCC3)CC1,,active: 1 µM
Nc1nc(SCc2cccc(Br)c2)n[nH]1,,"inconclusive: 7.94 µM [inhibitor, single point]"
COc1ccc(-c2nn(-c3ccccc3)cc2C(=O)NC(=S)N2CCOCC2)cc1OC,,"inconclusive: 8.91 µM [inhibitor, partial curve]"
COc1cc(CN2CCNC(=O)C2CC(=O)N(Cc2nccn2C)C(C)C)cc(OC)c1 (configuration not stated),inactive: 5.84%,
NC(=O)c1ccccc1NC(=O)c1ccc2c(c1)OCO2,,"inconclusive: 7.94 µM [inhibitor, single point]"

# Not a retest: entries from further up.
SMILES,"activity change, negative = inhibition",Potency
CC(C)(C)C(=O)Nc1cccc(-c2nc3ccccc3c(=O)o2)c1,,"inconclusive: 10 µM [inhibitor, single point]"
O=C(CCl)N1CCN(S(=O)(=O)c2ccc3c(c2)CCC3)CC1,,active: 1 µM

# Next compounds.

SMILES,"activity change, negative = inhibition",Potency
CC(=O)c1cccc(NS(=O)(=O)c2ccc(-c3cnc(C4CC4)o3)cc2)c1,,"inconclusive: 1 µM [inhibitor, partial curve, poor fit]"
CC1=CC(C)(C)[N+](C)=CN1c1ccccc1,inactive: -9.13%,
O=C(Cn1ncn2c(cc3ccccc32)c1=O)NCc1ccco1,inactive: -12.6%,
CCOC(=O)N1CCC(N(CCOC)C(=S)Nc2cccc(SC)c2)CC1,inactive: 1.1%,
COc1ccccc1NC(=O)COc1ccccc1C(=O)c1cnn(-c2ccccc2)c1,inactive: 16.3%,
NC(=S)N=Nc1c(O)[nH]c2ccccc12,inactive: 4.6%,
COc1ccc(NC(=O)CN(C)C(=O)CCc2nc3cc(S(=O)(=O)N4CCOCC4)ccc3n2C)cc1,,"inconclusive: 10 µM [inhibitor, single point]"
N#C/C(=C\c1ccccc1)C(=O)NCCN1CCOCC1,inactive: -1.81%,
COc1ccc(-c2cc3ncccc3cn2)cc1,,active: 10 µM
Cc1ccn2c(NC3CCCC3)c(-c3cccs3)nc2c1,inactive: 1.24%,
COCc1c(C(=O)N2CCc3ccccc32)oc2ccccc12,inactive: -4.07%,
COC(=O)c1cccc(NC(=O)c2cc3ccccc3o2)c1,,"inconclusive: 12.6 µM [inhibitor, single point]"
COc1ccc(CNC(=O)CCc2ccc(S(=O)(=O)N3CCCCCC3)cc2)cc1OC,,"inconclusive: 10 µM [inhibitor, partial curve, poor fit]"
Cc1ccc(Cc2cnc(NC(=O)c3ccco3)s2)cc1,,"inconclusive: 8.91 µM [inhibitor, single point]"
CCOc1cc(/C=C2/SC(=S)N(CC3CCCO3)C2=O)ccc1O (configuration not stated),,"inconclusive: 0.316 µM [inhibitor, full curve, poor fit]"
O=S(=O)(CCN1CCN(c2ccccc2O)CC1)c1cc(Cl)ccc1Cl,,"inconclusive: 4.47 µM [inhibitor, partial curve, poor fit]"
c1ccc(NC2=NCCN2CCCC2CCCCC2)cc1,,"inconclusive: 3.55 µM [inhibitor, partial curve]"
O=C(COC(=O)c1cc2c(s1)CCCC2)Nc1ccc(Cl)cn1,,"inconclusive: 3.55 µM [inhibitor, partial curve, poor fit]"
Cn1c(SCc2ccccc2)nc(N)c(N=O)c1=O,,active: 3.55 µM
COc1cccc(N2C(N)=NC(N)=NC2(C)C)c1,,"inconclusive: 3.16 µM [inhibitor, partial curve, poor fit]"
Cc1nc2ccc(NC(=O)Cc3c(F)cccc3Cl)cc2s1,,"inconclusive: 3.16 µM [inhibitor, single point]"
COc1ccccc1-c1nnc(NC(=O)CCS(=O)(=O)c2ccccc2)o1,,"inconclusive: 5.62 µM [inhibitor, partial curve, poor fit]"
O=C(Cn1ccc(NC(=O)OCc2ccccc2)nc1=O)NCc1nc2ccccc2[nH]1,,"inconclusive: 0.0126 µM [inhibitor, full curve, poor fit]"
